Data published in US20090253131A1, “HYBRID FUSION REPORTER AND USES THEREOF” (Promega Corporation, priority 2007, published 2009).
Some entries share one result that the patent states for a list of compounds.

B1: YL: DhaA.H272F based mutant Y273L (protein, UniProt P0A3G2 1-293, looked up, variant H272F Y273L)
Haloalkane dehalogenase: MSEIGTGFPFDPHYVEVLGERMHYVDVGPRDGTPVLFLHGNPTSSYLWRNIIPHVAPSHRCIAPDLIGMGKSDKPDLDYFFDDHVRYLDAFIEALGLEEVVLVIHDWGSALGFHWAKRNPERVKGIACMEFIRPIPTWDEWPEFARETFQAFRTADVGRELIIDQNAFIEGALPKCVVRPLTEVEMDHYREPFLKPVDREPLWRFPNELPIAGEPANIVALVEAYMNWLHQSPVPKLLFWGTPGVLIPPAEAARLAESLPNCKTVDIGPGLFLLQEDNPDLIGSEIARWLPAL
B2: H11YL: second generation DhaA.H272F mutant, H11 recombined with Y273L (SEQ ID NO:3) (protein)
chain: SEIGTGFPFDPHYVEVLGERMHYVDVGPRDGTPVLFLHGNPTSSYLWRNIIPHVAPSHRCIAPDLIGMGKSDKPDLDYFFDDHVRYLDAFIEALGLEEVVLVIHDWGSALGFHWAKRNPERVKGIACMEFIRPIPTWDEWPEFARETFQAFRTADVGRELIIDQNAFIEGALPMGVVRPLTEVEMDHYREPFLKPVDREPLWRFPNELPIAGEPANIVALVEAYMNWLHQSPVPKLLFWGTPGVLIPPAEAARLAESLPNCKTVDIGPGLFLLQEDNPDLIGSEIARWLPAL
modifications: A synthetic mutant dehalogenase sequence

Experiment: Kinetic labeling studies of purified DhaA mutants, fluorimage gel analysis
Type: biochemical
Conditions: for time by which labeling appeared to be complete: preliminary kinetic labeling studies

Molecule	time by which labeling appeared to be complete [min]	time by which labeling reaction is for the most part complete (first time point) (expanded time course) [s]
B1	≤ 2	
B2	≤ 2	≤ 20
